This assay concerns RAW 264.7. Briefly: cell viability (MTT) relative to vehicle control; higher = more viable cells. As to conditions: stimulus: HMGB1 5 ug/ml, 18 h.
The mark [1] stands for this setting: compound concentration: 1 ug/ml.

Values joined by “and” are separate entries in the source; they are usually repeats but may differ in a detail not shown here. Equal values may be shown once. Where a name gives a salt, the structure may show the parent alone. ± gives the standard deviation of the averaged measurements. Some of the results follow. Many values rest on one well or one pass, so single values are uncertain.

One may read the cell viability as a read-out of living cells in per cent, often relative to untreated cells.

In the case of `CCCn1c(=O)c2[nH]c(C3CCCC3)nc2n(CCCOC(=O)c2ccc(S(=O)(=O)F)cc2)c1=O`, the cell viability (compound concentration: 3 uM) was determined as 106%.

Take `CC(O)(CS(=O)(=O)c1ccc(F)cc1)C(=O)Nc1ccc(C#N)c(C(F)(F)F)c1` (configuration not stated) [Bicalutamide]: the cell viability (compound concentration: 3 uM) stood at 114 ± 4.1%.

In the case of `CC(O)(CS(=O)(=O)c1ccc(F)cc1)C(=O)Nc1ccc(C#N)c(C(F)(F)F)c1` (configuration not stated) [Bicalutamide (CDX)], for the setting “compound concentration: 3 uM”, the cell viability was determined as 106%.

Turning to `CC(O)(CS(=O)(=O)c1ccc(F)cc1)C(=O)Nc1ccc(C#N)c(C(F)(F)F)c1` (configuration not stated), the cell viability (compound concentration: 3 uM) was found to be 90.3%.

On to `CN1CCc2cc3c(cc2C1C1OC(=O)c2c1ccc1c2OCO1)OCO3` (single isomer, unassigned; (+)) [(+)-Bicuculline], for which the cell viability under setting [1] worked out at 99.8%.

For the compound `CCOC(=O)c1cncn1[C@H](C)c1ccccc1`, the cell viability (compound concentration: 3 uM) is 108% and 93%.

For `CCOC(=O)c1cncn1[C@H](C)c1ccccc1` [Etomidate], where the note is “compound concentration: 3 uM”, the cell viability came to 81.6%.

For `CC[C@@H](CO)NC(=O)[C@@H]1C=C2c3cccc4[nH]cc(c34)C[C@H]2N(C)C1`, the cell viability (compound concentration: 3 uM) is 112%.

For `CC[C@@H](CO)NC(=O)[C@@H]1C=C2c3cccc4[nH]cc(c34)C[C@H]2N(C)C1` [Methylergonovine maleate], the cell viability (compound concentration: 3 uM) amounted to 104%.

As to `CC[C@@H](CO)NC(=O)[C@@H]1C=C2c3cccc4[nH]cc(c34)C[C@H]2N(C)C1` [Methylergometrine maleate], for the setting “compound concentration: 3 uM”, the cell viability stood at 99.3%.

On to `CCC1(C2=NCCN2)Cc2ccccc2O1` (configuration not stated) [Efaroxan], for which the cell viability (compound concentration: 3 uM) came out at 106%.

As for `CCC1(C2=NCCN2)Cc2ccccc2O1` (configuration not stated), for the setting “compound concentration: 3 uM”, the cell viability turned out to be 103%.

Consider `CCC1(C2=NCCN2)Cc2ccccc2O1` (configuration not stated) [Efaroxan hydrochloride], for which the cell viability (compound concentration: 3 uM) worked out at 102%.

With `CCOC(=O)c1ncn2c1[C@@H]1CCCN1C(=O)c1cc(OC)ccc1-2`, the cell viability (compound concentration: 3 uM) worked out at 97.5%.

For `NC(N)=Nc1ccc2[nH]c3c(c2c1)C[C@@]1(O)[C@H]2Cc4ccc(O)c5c4[C@@]1(CCN2CC1CC1)[C@H]3O5` [Guanidinyl-naltrindole di-trifluoroacetate], under “compound concentration: 3 uM”, the cell viability turned out to be 113%.

`Cc1o[nH]c(=O)c1CC(N)C(=O)O` (racemic) [(±)-AMPA hydrobromide]: the cell viability (compound concentration: 3 uM) came to 109%.

As for `CCCCOC(=O)c1ccccc1C(=O)OCCCC`, the cell viability (compound concentration: 3 uM) worked out at 115%.

As for `CN1[C@@H]2CC[C@H]1C[C@@H](OC(=O)c1cc(Cl)cc(Cl)c1)C2` [3-Tropanyl-3,5-dichlorobenzoate], the cell viability (compound concentration: 3 uM) amounted to 122%.

`O=C(O)C(Cl)Cl`: the cell viability (compound concentration: 3 uM) was 95.9%.

On to `CC(C)(C)c1cc(C=C(C#N)C#N)cc(C(C)(C)C)c1O` [Tyrphostin A9], for which the cell viability (compound concentration: 3 uM) was 51.3%.

As to `O=C(O)c1nn(Cc2ccc(Cl)cc2Cl)c2ccccc12`, where the note is “compound concentration: 3 uM”, the cell viability is 114%.

As to `O=C(O)c1nn(Cc2ccc(Cl)cc2Cl)c2ccccc12` [Lonidamine], for the setting “compound concentration: 3 uM”, the cell viability was 96.3%.

For the compound `COc1ccc2c(c1OC)C(=O)O[C@@H]2[C@H]1c2cc3c(cc2CCN1C)OCO3`, where the note is “compound concentration: 3 uM”, the cell viability worked out at 101%.

As to `COc1ccc2c(c1OC)C(=O)O[C@@H]2[C@H]1c2cc3c(cc2CCN1C)OCO3` [(1R,9S)-(-)-beta-Hydrastine ; Hydrastine], the cell viability under setting [1] was 95%.

Regarding `Cc1cc(C(C#N)c2ccc(Cl)cc2)c(Cl)cc1NC(=O)c1cc(I)cc(I)c1O` (configuration not stated) [Closantel], the cell viability (compound concentration: 3 uM) came out at 114 ± 7.9%.

Turning to `C[C@@H]1C[C@@H]([C@H](O)CC2CC(=O)NC(=O)C2)C(=O)[C@@H](C)C1` [Cycloheximide], where the note is “compound concentration: 3 uM”, the cell viability is 41.1%.

Take `C[C@@H]1C[C@@H]([C@H](O)CC2CC(=O)NC(=O)C2)C(=O)[C@@H](C)C1`: for the setting “compound concentration: 3 uM”, the cell viability is 35.3%.

With `CC(C)(O)[C@@H]1[C@H]2OC(=O)[C@@H]1[C@]1(O)C[C@H]3O[C@]34C(=O)O[C@H]2[C@]14C` [Picrotin], the cell viability under setting [1] stood at 92.7%.

As to `NC(Cc1cc(O)c(O)cc1O)C(=O)O` (racemic) [6-Hydroxy-DL-DOPA], the cell viability (compound concentration: 3 uM) came out at 103%.

In the case of `O=c1[nH]oc2c1CCNC2` [THIP hydrochloride], for the setting “compound concentration: 3 uM”, the cell viability was found to be 118%.

For `O=c1[nH]oc2c1CCNC2` [THIP Hydrochloride], the cell viability (compound concentration: 3 uM) was determined as 80.6%.

Consider `Cc1nnc2n1-c1ccc(Cl)cc1C(c1ccccc1)=NC2` [Alprazolam], for which, where the note is “compound concentration: 3 uM”, the cell viability turned out to be 89.8%.

For `C[N+]1(C)CCc2cc3c(cc2[C@H]1[C@@H]1OC(=O)c2c1ccc1c2OCO1)OCO3` [(-)-Bicuculline methbromide, 1(S), 9(R)], the cell viability (compound concentration: 3 uM) turned out to be 103%.

Regarding `COc1ccc2c(c1O)-c1cccc3c1[C@@H](C2)N(C)CC3` [R(-)-Apocodeine hydrochloride], the cell viability (compound concentration: 3 uM) was 98.6%.

As for `C[N+]1(C)[C@@H]2CC(OC(=O)[C@H](CO)c3ccccc3)C[C@H]1[C@@H]1O[C@@H]12` (single isomer, unassigned; (-)) [(-)-Scopolamine methyl nitrate], under “compound concentration: 3 uM”, the cell viability amounted to 125%.

On to `C[N+]1(C)CCOC(O)(c2ccc(-c3ccc(C4(O)C[N+](C)(C)CCO4)cc3)cc2)C1` (configuration not stated) [Hemicholinium bromide], for which the cell viability (compound concentration: 3 uM) is 101%.

For `C[N+]1(C)CCOC(O)(c2ccc(-c3ccc(C4(O)C[N+](C)(C)CCO4)cc3)cc2)C1` (configuration not stated) [Hemicholinium-3], the cell viability (compound concentration: 3 uM) was 97.9%.

With `Nc1ccncc1`, the cell viability (compound concentration: 3 uM) was 111%.

Consider `Nc1ccncc1` [4-Aminopyridine], for which the cell viability (compound concentration: 3 uM) was 109%.

Regarding `CN(C)Cc1c[nH]c2ccccc12` [Gramine], under setting [1], the cell viability stood at 94.6%.

For the compound `CC[C@H](C)[C@H]1O[C@]2(C=C[C@@H]1C)C[C@@H]1C[C@@H](C/C=C(\C)[C@@H](O[C@H]3C[C@H](OC)[C@@H](O[C@H]4C[C@H](OC)[C@@H](O)[C@H](C)O4)[C@H](C)O3)[C@@H](C)/C=C/C=C3\CO[C@@H]4[C@H](O)C(C)=C[C@@H](C(=O)O1)[C@]34O)O2.CO[C@H]1C[C@H](O[C@H]2[C@H](C)O[C@@H](O[C@@H]3/C(C)=C/C[C@@H]4C[C@@H](C[C@]5(C=C[C@H](C)[C@@H](C(C)C)O5)O4)OC(=O)[C@@H]4C=C(C)[C@@H](O)[C@H]5OC/C(=C\C=C\[C@@H]3C)[C@]54O)C[C@@H]2OC)O[C@@H](C)[C@@H]1O` [Abamectin], the cell viability (compound concentration: 3 uM) was determined as 100%.

As for `CC[C@H](C)[C@H]1O[C@]2(C=C[C@@H]1C)C[C@@H]1C[C@@H](C/C=C(\C)[C@@H](O[C@H]3C[C@H](OC)[C@@H](O[C@H]4C[C@H](OC)[C@@H](O)[C@H](C)O4)[C@H](C)O3)[C@@H](C)/C=C/C=C3\CO[C@@H]4[C@H](O)C(C)=C[C@@H](C(=O)O1)[C@]34O)O2.CO[C@H]1C[C@H](O[C@H]2[C@H](C)O[C@@H](O[C@@H]3/C(C)=C/C[C@@H]4C[C@@H](C[C@]5(C=C[C@H](C)[C@@H](C(C)C)O5)O4)OC(=O)[C@@H]4C=C(C)[C@@H](O)[C@H]5OC/C(=C\C=C\[C@@H]3C)[C@]54O)C[C@@H]2OC)O[C@@H](C)[C@@H]1O`, the cell viability (compound concentration: 3 uM) amounted to 101%.

The values are drawn from the supplement of paper PMC3682954.
